These are yes or no findings as the source states them, for the method shown.

The target in this assay is Haloferax volcanii malate dehydrogenase (Haloferax volcanii) (UniProt Q9P9L2). Description: condition: only in 0.2 M KCl (protein at 0.1 mg/ml); AUC; sedimentation velocity, 20 °C, 0.1 mg/ml, 50 mM Tris pH 7.0, 0.2 M KCl, after 24 h incubation; both purified.

B1: Haloferax volcanii malate dehydrogenase (enzyme, UniProt Q9P9L2 1-304, looked up)
chain: MTKVSVIGAAGTVGAAAGYNLALRDVCDELVFVDIPKMEDKTVGQAADTNHGIAYDSNTVVTQGGYEDTAGSDVVVITAGIPRQPGQTRIDLAGDNAPIMDDIGSSLAEYNDDFVSITTSNPVDLLNRHLYETGDRDRHKVIGFGGRLDSARFRYVLSQRFDVPVKNVDATILGEHGDAQVPVFSKVRVDGNDPAFSADEKEEILGDLQESAMDVIERKGATQWGPATGVAHMVEAVLHDTGEVLPGSLVLDGEFGYEDTAFGVPVKLGSNGIEEVVEWDLDDYEADLMDDAAEKLRDQYDEIA
notes: malate dehydrogenase (MalDH) of Haloferax volcanii; S6-S8; Tetramer in molar KCl; the oligomeric state depends on salt type and concentration (monomer in 0.2 M KCl); also called H. volc MalDH; MalDH of H. volcanii
B1: the binding result is listed as “no binding”.

The values above are taken from publication PMC8382911 (Molecular Biology and Evolution, 2021).
